Measurements: US11753395B2 (Kinnate Biopharma Inc., priority 2021, dated 2023)
The match of structure and compound is tentative.

Sequences of proteins named here, by UniProt entry; tags and fusion partners are left off. A change or cut given only in a name is not applied to a line headed by its entry. Residues count along the entry.
UniProt P08581, whole entry: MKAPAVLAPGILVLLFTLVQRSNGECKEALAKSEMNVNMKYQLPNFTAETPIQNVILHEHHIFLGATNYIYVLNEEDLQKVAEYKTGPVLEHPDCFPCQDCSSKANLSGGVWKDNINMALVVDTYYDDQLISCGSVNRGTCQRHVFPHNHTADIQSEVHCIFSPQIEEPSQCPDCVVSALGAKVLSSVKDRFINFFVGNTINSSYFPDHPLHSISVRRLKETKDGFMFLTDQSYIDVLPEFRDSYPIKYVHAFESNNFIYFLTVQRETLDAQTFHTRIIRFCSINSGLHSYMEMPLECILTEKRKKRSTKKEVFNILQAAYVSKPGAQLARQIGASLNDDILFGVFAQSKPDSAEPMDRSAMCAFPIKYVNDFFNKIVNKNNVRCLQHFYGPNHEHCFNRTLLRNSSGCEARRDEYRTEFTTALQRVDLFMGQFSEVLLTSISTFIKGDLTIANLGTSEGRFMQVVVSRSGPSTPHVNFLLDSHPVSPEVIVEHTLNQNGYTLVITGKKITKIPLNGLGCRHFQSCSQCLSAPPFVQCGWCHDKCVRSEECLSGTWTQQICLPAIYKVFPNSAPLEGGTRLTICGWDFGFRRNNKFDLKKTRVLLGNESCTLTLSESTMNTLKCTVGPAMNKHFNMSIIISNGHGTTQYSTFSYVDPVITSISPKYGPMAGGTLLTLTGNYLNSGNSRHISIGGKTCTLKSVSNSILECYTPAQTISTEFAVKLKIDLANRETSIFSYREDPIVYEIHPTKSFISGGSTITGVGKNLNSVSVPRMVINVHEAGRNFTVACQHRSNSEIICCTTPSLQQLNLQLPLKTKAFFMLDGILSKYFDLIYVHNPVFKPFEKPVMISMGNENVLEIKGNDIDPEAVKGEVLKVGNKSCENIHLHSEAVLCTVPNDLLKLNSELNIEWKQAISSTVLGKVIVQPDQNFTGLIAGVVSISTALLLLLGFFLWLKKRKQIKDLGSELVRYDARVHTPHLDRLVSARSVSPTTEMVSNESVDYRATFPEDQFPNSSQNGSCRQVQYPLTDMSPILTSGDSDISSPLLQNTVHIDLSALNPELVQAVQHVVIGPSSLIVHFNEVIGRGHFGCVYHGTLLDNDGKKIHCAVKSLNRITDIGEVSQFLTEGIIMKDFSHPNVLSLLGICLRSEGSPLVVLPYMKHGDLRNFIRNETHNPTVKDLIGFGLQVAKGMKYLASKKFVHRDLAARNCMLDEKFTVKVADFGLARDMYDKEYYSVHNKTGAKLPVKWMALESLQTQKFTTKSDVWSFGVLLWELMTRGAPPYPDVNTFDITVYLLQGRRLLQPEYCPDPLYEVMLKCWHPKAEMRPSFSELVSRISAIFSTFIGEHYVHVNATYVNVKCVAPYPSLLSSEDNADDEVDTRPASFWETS
UniProt P08581, whole entry D1228N: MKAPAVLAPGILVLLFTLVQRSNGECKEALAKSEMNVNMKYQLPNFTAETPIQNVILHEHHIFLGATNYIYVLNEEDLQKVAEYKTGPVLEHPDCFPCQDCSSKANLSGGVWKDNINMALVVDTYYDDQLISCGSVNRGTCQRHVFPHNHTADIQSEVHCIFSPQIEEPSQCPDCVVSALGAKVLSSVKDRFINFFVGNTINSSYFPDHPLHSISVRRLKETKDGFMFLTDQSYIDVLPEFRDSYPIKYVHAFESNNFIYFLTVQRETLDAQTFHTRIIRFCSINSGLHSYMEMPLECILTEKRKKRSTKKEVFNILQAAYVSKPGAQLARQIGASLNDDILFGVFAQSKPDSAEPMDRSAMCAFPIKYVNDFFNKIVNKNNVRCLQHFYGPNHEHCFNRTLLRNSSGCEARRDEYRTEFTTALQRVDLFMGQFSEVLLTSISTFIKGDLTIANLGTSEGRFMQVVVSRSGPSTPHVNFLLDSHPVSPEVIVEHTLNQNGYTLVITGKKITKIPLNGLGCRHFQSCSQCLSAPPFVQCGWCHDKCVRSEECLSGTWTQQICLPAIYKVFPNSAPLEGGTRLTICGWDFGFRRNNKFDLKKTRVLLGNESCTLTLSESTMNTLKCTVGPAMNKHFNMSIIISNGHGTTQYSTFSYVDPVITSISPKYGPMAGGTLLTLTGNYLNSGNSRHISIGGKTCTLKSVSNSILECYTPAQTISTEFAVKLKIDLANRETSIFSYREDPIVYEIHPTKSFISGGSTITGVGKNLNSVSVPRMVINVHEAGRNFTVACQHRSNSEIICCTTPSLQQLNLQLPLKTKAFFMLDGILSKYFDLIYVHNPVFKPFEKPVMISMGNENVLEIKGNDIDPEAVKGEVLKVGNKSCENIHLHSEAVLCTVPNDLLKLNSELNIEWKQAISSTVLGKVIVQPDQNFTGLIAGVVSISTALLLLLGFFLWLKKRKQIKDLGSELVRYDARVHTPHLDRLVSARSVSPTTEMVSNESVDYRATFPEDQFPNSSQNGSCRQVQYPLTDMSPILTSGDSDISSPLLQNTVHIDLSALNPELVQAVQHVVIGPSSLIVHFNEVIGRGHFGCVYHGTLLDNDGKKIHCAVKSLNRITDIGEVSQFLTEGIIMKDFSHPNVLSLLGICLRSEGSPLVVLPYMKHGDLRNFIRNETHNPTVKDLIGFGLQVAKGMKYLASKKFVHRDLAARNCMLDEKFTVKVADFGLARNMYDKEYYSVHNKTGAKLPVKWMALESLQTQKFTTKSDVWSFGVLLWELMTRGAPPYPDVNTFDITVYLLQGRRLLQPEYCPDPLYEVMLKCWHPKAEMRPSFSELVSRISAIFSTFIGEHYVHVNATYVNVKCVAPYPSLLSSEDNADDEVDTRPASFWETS
UniProt P08581, 25-1390 limits assumed: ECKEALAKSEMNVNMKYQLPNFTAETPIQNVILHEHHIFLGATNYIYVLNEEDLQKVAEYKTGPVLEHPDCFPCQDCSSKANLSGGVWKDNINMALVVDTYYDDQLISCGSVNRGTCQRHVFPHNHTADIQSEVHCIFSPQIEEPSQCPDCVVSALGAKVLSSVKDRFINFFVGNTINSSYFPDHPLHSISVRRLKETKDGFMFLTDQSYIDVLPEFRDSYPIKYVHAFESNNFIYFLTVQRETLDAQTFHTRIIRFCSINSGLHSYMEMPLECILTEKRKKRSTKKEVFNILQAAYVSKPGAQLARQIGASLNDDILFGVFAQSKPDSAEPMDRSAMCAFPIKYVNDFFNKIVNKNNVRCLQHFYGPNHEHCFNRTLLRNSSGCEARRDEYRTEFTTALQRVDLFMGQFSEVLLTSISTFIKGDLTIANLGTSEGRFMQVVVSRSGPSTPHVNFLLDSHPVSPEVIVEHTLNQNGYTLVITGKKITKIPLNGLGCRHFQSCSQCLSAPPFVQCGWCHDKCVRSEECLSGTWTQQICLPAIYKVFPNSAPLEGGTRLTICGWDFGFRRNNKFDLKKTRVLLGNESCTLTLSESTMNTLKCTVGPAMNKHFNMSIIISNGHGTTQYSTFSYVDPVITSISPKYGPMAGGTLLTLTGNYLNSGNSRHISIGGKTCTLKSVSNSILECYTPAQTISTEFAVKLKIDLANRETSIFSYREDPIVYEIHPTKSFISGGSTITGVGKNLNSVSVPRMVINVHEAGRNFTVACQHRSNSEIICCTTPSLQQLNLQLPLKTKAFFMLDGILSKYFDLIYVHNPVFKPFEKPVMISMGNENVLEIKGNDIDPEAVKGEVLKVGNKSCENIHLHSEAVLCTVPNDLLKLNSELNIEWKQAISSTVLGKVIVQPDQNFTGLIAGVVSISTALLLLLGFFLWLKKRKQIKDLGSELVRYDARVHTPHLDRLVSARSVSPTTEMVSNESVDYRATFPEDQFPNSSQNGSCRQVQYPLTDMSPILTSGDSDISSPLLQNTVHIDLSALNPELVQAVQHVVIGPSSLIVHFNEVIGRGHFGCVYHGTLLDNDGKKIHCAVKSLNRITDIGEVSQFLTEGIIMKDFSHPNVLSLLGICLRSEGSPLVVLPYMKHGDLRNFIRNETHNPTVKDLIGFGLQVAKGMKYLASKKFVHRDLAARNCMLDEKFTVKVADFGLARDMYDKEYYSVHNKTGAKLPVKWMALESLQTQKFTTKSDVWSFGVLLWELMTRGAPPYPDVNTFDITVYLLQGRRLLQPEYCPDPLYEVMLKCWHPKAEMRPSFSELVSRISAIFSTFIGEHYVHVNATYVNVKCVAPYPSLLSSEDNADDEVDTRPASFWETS
UniProt P08581, 25-1390 D1228N limits assumed: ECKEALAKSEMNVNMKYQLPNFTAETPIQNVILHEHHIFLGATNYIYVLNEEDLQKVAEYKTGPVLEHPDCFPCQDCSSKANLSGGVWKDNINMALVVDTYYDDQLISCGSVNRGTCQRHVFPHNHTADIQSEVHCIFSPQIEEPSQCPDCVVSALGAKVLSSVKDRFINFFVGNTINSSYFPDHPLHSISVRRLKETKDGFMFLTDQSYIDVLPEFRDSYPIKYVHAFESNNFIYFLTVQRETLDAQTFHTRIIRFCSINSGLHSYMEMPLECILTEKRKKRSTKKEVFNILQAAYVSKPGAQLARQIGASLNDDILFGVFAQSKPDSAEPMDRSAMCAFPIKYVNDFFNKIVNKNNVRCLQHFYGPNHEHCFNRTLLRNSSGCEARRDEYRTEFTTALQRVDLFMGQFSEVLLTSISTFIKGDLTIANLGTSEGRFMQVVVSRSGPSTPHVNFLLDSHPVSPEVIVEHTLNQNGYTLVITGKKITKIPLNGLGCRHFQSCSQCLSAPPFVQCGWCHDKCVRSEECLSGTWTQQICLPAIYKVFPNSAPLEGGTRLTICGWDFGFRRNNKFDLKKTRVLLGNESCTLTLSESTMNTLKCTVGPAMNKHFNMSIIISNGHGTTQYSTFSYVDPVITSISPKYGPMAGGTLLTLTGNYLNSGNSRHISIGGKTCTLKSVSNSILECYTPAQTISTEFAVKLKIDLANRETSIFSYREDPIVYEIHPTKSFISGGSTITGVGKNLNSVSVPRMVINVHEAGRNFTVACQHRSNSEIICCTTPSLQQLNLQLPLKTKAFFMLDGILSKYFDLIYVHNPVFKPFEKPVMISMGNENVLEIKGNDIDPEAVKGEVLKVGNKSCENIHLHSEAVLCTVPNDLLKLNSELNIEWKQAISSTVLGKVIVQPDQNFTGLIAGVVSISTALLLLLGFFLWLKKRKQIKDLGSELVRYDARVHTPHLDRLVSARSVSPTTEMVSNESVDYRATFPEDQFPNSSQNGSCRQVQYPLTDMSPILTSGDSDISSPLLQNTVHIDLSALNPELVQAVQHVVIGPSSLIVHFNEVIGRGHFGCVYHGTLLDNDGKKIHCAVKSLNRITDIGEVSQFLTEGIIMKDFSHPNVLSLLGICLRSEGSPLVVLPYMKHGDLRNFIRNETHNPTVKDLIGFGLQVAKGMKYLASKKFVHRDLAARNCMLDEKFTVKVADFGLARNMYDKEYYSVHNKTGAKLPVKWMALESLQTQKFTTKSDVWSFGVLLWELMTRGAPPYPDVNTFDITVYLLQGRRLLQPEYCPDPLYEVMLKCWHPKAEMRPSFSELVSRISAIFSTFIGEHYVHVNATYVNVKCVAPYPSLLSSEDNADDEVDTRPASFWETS

Tests used:
[1] = molecular target: Ba/F3-TPR-MET-D1228N cells (Homo sapiens, UniProt P08581, D1228N, cells depend on it); experiment: CellTiter-Glo Cell Viability Assay, Ba/F3-TPR-MET-D1228N; conditions: read-out: Ba/F3-TPR-MET-D1228N, 72 hours
Experimental: (§1) Ba/F3-TPR-MET and Ba/F3-TPR-MET-D1228N cells were seeded at 3000 cells per well in a 96 well plate in 90 μL growth media and allowed to incubate overnight at 37° C. with 5% CO2. The following day, compounds were serially diluted from a 10 mM top dose for a 9-point 3-fold dilution curve in DMSO. Following a 100-fold dilution in growth media, a further 10-fold dilution was made into the cell plate for a final volume of 100 μL and 0.1% DMSO. Compounds and cells were incubated together for 72 hours at 37° C. with 5% CO2. The CellTiter-Glo® 2.0 Assay determines the number of viable cells in culture by quantifying ATP, which indicates the presence of metabolically active cells. Luminescence readout is directly proportional to the number of viable cells in culture. CellTiter-Glo reagent (Promega, G9243) and cell plates were allowed to equilibrate to room temperature for at least 15 min, then 100 μL of CellTiter-Glo was added to each well for a 1:1 ratio of reagent to media. Samples were placed on a shaker for 2 min prior to a 30 min incubation at room temperature protected from light. Luminescence was read on a Perkin Elmer Envision plate reader 2105 and used to calculate ICso values within the Dotmatics Knowledge Solutions Studies curve fitting environment (Dotmatics, Bishops Stortford, UK, CM23) and are presented in Table 2.

MET D1228N = MET D1228N (Homo sapiens, UniProt P08581, D1228N); experiment: MET D1228N Mobility Shift Assay; conditions: read-out: MET-D1228N; biochemical assay IC50; 100 μM ATP, 60 minute kinase reaction
Experimental: (§2) Small molecule inhibition of MET D1228N kinase activity was evaluated using a fluorescence -based microfluidic mobility shift assay. MET D1228N catalyzes the production of ADP from ATP during phosphoryl transfer to the substrate peptide, FLPeptide30 (5-FAM-KKKKEEIYFFF -CONH2) (Perkin Elmer, 760430). MET D1228N enzyme (Signalchem, M52-12IG) at 0.313 nM was prepared with 10 mM MgCl2 and 1.5 μM substrate peptide in a buffer containing 50 mM HEPES, 1 mM EGTA, 0.01% Brij-35, 0.05% BSA, and 2 mM DTT and pre-incubated at room temperature for 30 min prior to the start of the reaction. 100 μM ATP was added to start the reaction. The mobility shift assay electrophoretically separates the fluorescently labeled peptides (substrate and phosphorylated product) following the 60 minute kinase reaction. The reaction was terminated by addition of 0.5 M EDTA. Both substrate and product were measured and the ratio of these values used to generate % conversion of substrate to product by the LabChip EZ reader (Perkin Elmer). ICso values were calculated using the inhibition of conversion ratio using Dotmatics Knowledge Solutions Studies curve fitting environment (Dotmatics, Bishops Stortford, UK, CM23) and are presented in Table 2.

MET = MET (Homo sapiens, UniProt P08581); experiment: MET Mobility Shift Assay; conditions: read-out: MET; biochemical assay IC50; 100 μM ATP, 60 minute kinase reaction
Experimental: as §2, with “MET” for “MET D1228N”, “a fluorescence-based” for “a fluorescence -based”, “FLPeptide30 (5-FAM-KKKKEEIYFFF-CONH2)” for “FLPeptide30 (5-FAM-KKKKEEIYFFF -CONH2)”, “MET enzme (Carna Biosciences, 08-151)” for “MET D1228N enzyme (Signalchem, M52-12IG)”, “at 0.625” for “at 0.313”

Ba/F3-TPR-MET cells = Ba/F3-TPR-MET cells (Homo sapiens, UniProt P08581); experiment: CellTiter-Glo Cell Viability Assay, Ba/F3-TPR-MET; conditions: read-out: Ba/F3-TPR-MET, 72 hours
Experimental: as §1

In the case of COc1cc2c(Oc3c(F)cc(NC(=O)c4cnccc4OC4CC4)cc3F)ccnc2cc1OCC[C@@H](C)O, the EC50 [1] is reported as 100 to 1000 nM, the IC50 (MET D1228N) is reported as < 100 nM and the IC50 (MET) is reported as < 100 nM. For the same compound, the EC50 (Ba/F3-TPR-MET cells) was 1000 to 10000 nM.
